Measurements as given in PubChem BioAssay (EPA / NIEHS).
The shares of active, inactive and inconclusive entries below differ from those in the screen. Where the call is inconclusive, the potency comes from a doubtful curve fit. Active and inactive are the calls of the source. Rule for the calls: active = hit-call score of the fitted dose curve at least 0.9, where 1 is the maximum; inconclusive = response in the unintended direction; inactive = score below 0.9.

Chains of the proteins cited; added tags and fusions are not shown. Lines headed by an entry give the natural chain unless they say otherwise; changes in a name come on top.
UniProt P11509: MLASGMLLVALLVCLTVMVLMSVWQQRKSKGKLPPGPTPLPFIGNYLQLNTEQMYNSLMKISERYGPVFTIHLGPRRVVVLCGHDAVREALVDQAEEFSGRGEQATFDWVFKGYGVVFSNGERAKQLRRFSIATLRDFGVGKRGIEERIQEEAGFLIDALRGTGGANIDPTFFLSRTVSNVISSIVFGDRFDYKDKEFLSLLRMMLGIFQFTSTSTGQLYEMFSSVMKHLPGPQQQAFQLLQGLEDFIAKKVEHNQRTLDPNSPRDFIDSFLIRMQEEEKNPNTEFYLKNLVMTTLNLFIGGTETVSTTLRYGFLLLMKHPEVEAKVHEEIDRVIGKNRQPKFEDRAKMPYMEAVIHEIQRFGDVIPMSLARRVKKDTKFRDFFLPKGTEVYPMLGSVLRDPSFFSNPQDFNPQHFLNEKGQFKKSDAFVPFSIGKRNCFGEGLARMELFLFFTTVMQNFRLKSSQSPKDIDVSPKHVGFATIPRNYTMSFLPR
UniProt P11712, whole entry, looked up: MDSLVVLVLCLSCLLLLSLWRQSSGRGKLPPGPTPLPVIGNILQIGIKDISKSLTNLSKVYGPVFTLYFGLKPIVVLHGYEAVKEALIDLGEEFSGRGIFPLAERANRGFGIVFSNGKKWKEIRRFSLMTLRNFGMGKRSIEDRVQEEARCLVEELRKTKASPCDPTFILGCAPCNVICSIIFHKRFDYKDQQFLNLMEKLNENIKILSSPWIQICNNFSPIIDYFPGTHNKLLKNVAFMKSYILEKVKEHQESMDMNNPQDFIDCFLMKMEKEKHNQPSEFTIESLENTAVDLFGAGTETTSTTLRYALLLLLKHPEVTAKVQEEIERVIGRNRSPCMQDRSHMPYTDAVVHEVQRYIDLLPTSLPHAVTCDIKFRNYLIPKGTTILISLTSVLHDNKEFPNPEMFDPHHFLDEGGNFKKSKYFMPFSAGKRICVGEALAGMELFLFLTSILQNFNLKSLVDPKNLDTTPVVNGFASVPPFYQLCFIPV
UniProt P08684, whole entry, looked up: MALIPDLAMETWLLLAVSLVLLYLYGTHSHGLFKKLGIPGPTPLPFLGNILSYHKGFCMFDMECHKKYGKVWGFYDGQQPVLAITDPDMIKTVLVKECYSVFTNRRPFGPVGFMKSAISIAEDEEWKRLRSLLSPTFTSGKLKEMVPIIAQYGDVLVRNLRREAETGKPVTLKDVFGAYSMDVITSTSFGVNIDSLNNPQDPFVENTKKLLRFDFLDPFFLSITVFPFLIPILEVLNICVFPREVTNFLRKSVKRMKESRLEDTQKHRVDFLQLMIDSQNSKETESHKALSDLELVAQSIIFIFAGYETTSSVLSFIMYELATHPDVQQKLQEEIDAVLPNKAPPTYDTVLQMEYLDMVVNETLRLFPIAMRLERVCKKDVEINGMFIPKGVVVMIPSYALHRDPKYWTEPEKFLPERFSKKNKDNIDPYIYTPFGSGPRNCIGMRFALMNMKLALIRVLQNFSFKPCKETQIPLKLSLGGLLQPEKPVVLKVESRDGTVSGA
UniProt P04799: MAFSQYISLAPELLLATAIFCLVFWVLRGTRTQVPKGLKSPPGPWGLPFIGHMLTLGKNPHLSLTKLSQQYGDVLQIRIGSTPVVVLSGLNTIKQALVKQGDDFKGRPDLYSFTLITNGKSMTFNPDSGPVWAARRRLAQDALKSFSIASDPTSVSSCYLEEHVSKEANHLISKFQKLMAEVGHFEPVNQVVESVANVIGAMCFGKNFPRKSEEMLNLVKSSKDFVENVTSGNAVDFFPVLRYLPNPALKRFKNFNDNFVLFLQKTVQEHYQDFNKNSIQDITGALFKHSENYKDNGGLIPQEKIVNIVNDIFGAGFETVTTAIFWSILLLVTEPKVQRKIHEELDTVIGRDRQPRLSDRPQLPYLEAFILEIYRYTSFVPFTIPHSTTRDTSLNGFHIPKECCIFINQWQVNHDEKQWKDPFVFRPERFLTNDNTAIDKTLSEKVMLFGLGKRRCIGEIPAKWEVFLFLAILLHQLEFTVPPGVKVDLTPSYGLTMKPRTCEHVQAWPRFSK

Molecular target: human CYP2A6, CYP2A6 (gene 1548) (UniProt P11509)
Test: NVS_ADME_hCYP2A6: NovaScreen (NVS) CYP450-related Enzyme Activity (ADME) Assay for human CYP2A6 (AID 2283099)
How it was run: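 Loss of fluorescence signal relative to acetonitrile vehicle reported CYP2A6 inhibition in a cell-free system using insect-cell-derived enzyme. Readings were taken at 0.5 h; top concentration in follow-up dose series was 20 uM.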

AC50, inconclusive:
OCc1ccccc1 10 µM
O=C1CCCCCN1 10 µM
CCOC(=O)CCC(=O)OCC 10 µM
O=C(OC[C@H]1O[C@@H](OC(=O)c2cc(O)c(O)c(OC(=O)c3cc(O)c(O)c(O)c3)c2)[C@H](OC(=O)c2cc(O)c(O)c(OC(=O)c3cc(O)c(O)c(O)c3)c2)[C@@H](OC(=O)c2cc(O)c(O)c(OC(=O)c3cc(O)c(O)c(O)c3)c2)[C@@H]1OC(=O)c1cc(O)c(O)c(OC(=O)c2cc(O)c(O)c(O)c2)c1)c1cc(O)c(O)c(OC(=O)c2cc(O)c(O)c(O)c2)c1 3.05 µM
CCc1nn(C2CCCCC2)c2cc(C3(C#N)CCC(C(=O)O)CC3)ccc12 (configuration not stated) 4.99 µM

AC50, active:
COc1ccc([N+](=O)[O-])cc1N 5.77 µM

outcome, inactive:
Oc1ccccc1

Molecular target: human CYP2C9, CYP2C9 (gene 1559) (UniProt P11712)
Test: NVS_ADME_hCYP2C9: NovaScreen (NVS) CYP450-related Enzyme Activity (ADME) Assay for human CYP2C9 (AID 2283108)
How it was run: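 Fluorescence readout of CYP2C9 activity (SF9-expressed human enzyme) at 0.75 h. The primary screen used 10 uM in duplicate, with concentration-response follow-up for actives; acetonitrile was the negative control.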

AC50, active:
Oc1ccc2c(c1)-c1ccccc1C2 3.72 µM

AC50, inconclusive:
COc1ccc([N+](=O)[O-])cc1N 0.0943 µM
CC1=C(/C=C/C(C)=C/C=C/C(C)=C/C(=O)O)C(C)(C)CCC1 1.98 µM

outcome, inactive:
CCCCOC(=O)CC(CC(=O)OCCCC)(OC(C)=O)C(=O)OCCCC
CC(C)=CCCC(C)O (configuration not stated)

Molecular target: Cytochrome P450 3A4 (Homo sapiens) (UniProt P08684)
Test: NVS_ADME_hCYP3A4: NovaScreen (NVS) CYP450-related Enzyme Activity (ADME) Assay for human CYP3A4 (AID 2283110)
How it was run: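 Compounds were first screened in duplicate at 10 uM against recombinant CYP3A4 produced in insect cells, then actives were run in concentration series. Enzyme activity was measured by fluorescence after 0.33 hour, with acetonitrile as baseline.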

outcome, inactive:
NC(=O)N1C(=O)C(C(=O)c2cc(Cl)cs2)c2cc(F)c(Cl)cc21 (configuration not stated)
CCN(CC)c1ccc2c(C)cc(=O)oc2c1
Oc1ccc2c(c1)-c1ccccc1C2

AC50, active:
CCCCC(CC)CN1C(=O)C2C3C=CC(C3)C2C1=O (configuration not stated) 3 µM
CCCOc1sc(C(=O)N2CCC(c3cc(CN)ccc3F)CC2)c(C)c1Br 14.4 µM

AC50, inconclusive:
Fc1ccccc1[C@@H](F)COC1CCC(Nc2ncnc3[nH]ncc23)CC1 (some centres not stated) 10 µM
C=C(C)C(=O)OCCCCCCCCCCCC 5 µM
CCCCC(CC)COP(=O)(OCC(CC)CCCC)OCC(CC)CCCC (configuration not stated) 10 µM
CCOC(=O)CCC(=O)OCC 10 µM
OC[C@H]1O[C@@H]2O[C@H]3[C@H](O)[C@@H](O)[C@@H](O[C@H]4[C@H](O)[C@@H](O)[C@@H](O[C@H]5[C@H](O)[C@@H](O)[C@@H](O[C@H]6[C@H](O)[C@@H](O)[C@@H](O[C@H]7[C@H](O)[C@@H](O)[C@@H](O[C@H]1[C@H](O)[C@H]2O)O[C@@H]7CO)O[C@@H]6CO)O[C@@H]5CO)O[C@@H]4CO)O[C@@H]3CO 5.25 µM
O=C(N[C@@H](Cc1ccccc1)[C@@H](O)C(=O)N1C[C@@H](O)[C@@H](O)C1)c1cc2cc(Cl)ccc2[nH]1 10 µM
Cc1cccc(C)c1O 10 µM
CC1=C(/C=C/C(C)=C/C=C/C(C)=C/C(=O)O)C(C)(C)CCC1 15.4 µM
CC(C)(N=C=O)c1cccc(C(C)(C)N=C=O)c1 5 µM
N#[N+]c1ccc2c(S(=O)(=O)[O-])cccc2c1O 5 µM

Molecular target: Cytochrome P450 2C19 (Homo sapiens) (UniProt P33261)
Test: NVS_ADME_hCYP2C19: NovaScreen (NVS) CYP450-related Enzyme Activity (ADME) Assay for human CYP2C19 (AID 2283113);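 for AC50: potency for inhibition seen as loss of fluorescent signal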
How it was run: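 Biochemical CYP2C19 inhibition screen: insect-cell recombinant protein plus fluorescent substrate, 1 h, fluorescence intensity. Acetonitrile defined baseline activity. Single 10 uM concentration in duplicate, with concentration-response follow-up for actives.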

outcome, inactive:
NC(=O)N1C(=O)C(C(=O)c2cc(Cl)cs2)c2cc(F)c(Cl)cc21 (configuration not stated)
CC1=C(/C=C/C(C)=C/C=C/C(C)=C/C(=O)O)C(C)(C)CCC1

AC50, active:
O=C1OC(c2ccc(O)cc2)(c2ccc(O)cc2)c2ccccc21 0.586 µM

AC50, inconclusive:
COC(=O)c1ccc(I)cc1S(=O)(=O)NC(=O)Nc1nc(C)nc(OC)n1 0.0263 µM
CN(C)C=O 10 µM
Cc1[nH]nc2c1N=C(c1ccccc1Cl)c1cc([N+](=O)[O-])ccc1N2 16 µM
CCn1nc(C)c2c1C(=O)NCC(c1ccc(O)cc1)=N2 0.205 µM
COC(=O)c1ccc(CNS(C)(=O)=O)cc1S(=O)(=O)NC(=O)Nc1nc(OC)cc(OC)n1 0.046 µM
CC(=O)OCCC(C)C 0.705 µM
COC(=O)CSc1cc(N=c2sc(=O)n3n2CCCC3)c(F)cc1Cl 0.112 µM
CCNc1nc(N)nc(Cl)n1 0.131 µM

Quoted at random: two compounds from above, in no set order.
AC50, inconclusive:
COC(=O)c1ccc(I)cc1S(=O)(=O)NC(=O)Nc1nc(C)nc(OC)n1 0.0263 µM
COC(=O)c1ccc(CNS(C)(=O)=O)cc1S(=O)(=O)NC(=O)Nc1nc(OC)cc(OC)n1 0.046 µM

Molecular target: rat CYP1A2, Cyp1a2 (gene 24297) (UniProt P04799)
Test: NVS_ADME_rCYP1A2: NovaScreen (NVS) CYP450-related Enzyme Activity (ADME) Assay for rat CYP1A2 (AID 2283115)
How it was run: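 Cell-free recombinant rat enzyme with fluorogenic substrate, read by fluorescence intensity 1 hour after dosing. Loss of signal versus acetonitrile negative control; primary screen at 10 uM in duplicate, actives followed in concentration series.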

AC50, active:
CCN(CC)c1ccc2c(C)cc(=O)oc2c1 8.15 µM

AC50, inconclusive:
COC(=O)c1ccc2cc(C(=O)OC)ccc2c1 1.52 µM
OCc1c[nH]c2ccccc12 0.0272 µM
CN(C)C(=O)Nc1ccc(Oc2ccc(Cl)cc2)cc1 5 µM
O=C(Oc1ccccc1)c1ccccc1C(=O)Oc1ccccc1 0.0417 µM
O=C(Cl)c1cccc(C(=O)Cl)c1 0.0757 µM
N#[N+]c1ccc2c(S(=O)(=O)[O-])cccc2c1O 7.75 µM
CCOc1ccc(NC(C)=O)cc1 0.936 µM

outcome, inactive:
CNNCc1ccc(C(=O)NC(C)C)cc1
